Measured values published in the supplement of paper PMC10338343.
± gives the standard deviation. The entries are a selection whose mix differs from that of the whole data set. Many entries were measured with a wide error.

test system: EfPiwi piRISC loaded with piRNA #1 (26 nt); assay: pre-steady-state target cleavage rate (min^-1); guide: piRNA #1 5'p-UGAGGUAGUAGGUUGUAUAGUAUCCA; MIWI and MILI are mouse PIWI proteins and EfPiwi is from a freshwater sponge; tags in brackets are library labels; higher = faster piRNA-guided slicing of the target; details: auxiliary factor: 500 nM Ephydatia muelleri Gtsf1
Method in brief: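 For Cleave-'n-Seq, a transcribed, DNA-blocked target RNA library […] met 1 nM active affinity-purified piRISC with one synthetic guide at 33 °C for 0–8 or 0–960 min in HEPES–potassium acetate buffer, with or without 500 nM GTSF1 partner protein. Uncleaved targets were sequenced and normalised to depth and weakly complementary targets, with three trials pooled and k3 capped at 0.0001 min^-1. A burst-and-steady-state fit supplied the pre-steady-state cleavage rate.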

Row | Sequence | pre-steady-state target cleavage rate
1 | GGAGACCUAUCUAUACAACGUACUACCUCA | 0.00256 ± 0.0026
2 | GGAGACGAUACUAUAGUUCCUACUACCUCA | 0.00239 ± 0.0033
3 | GGAGACCUUACUAUACAACCUACGUACCUCA | 0.00274 ± 0.006
4 | GGAGACCAUAGUAUAGAACCUACUACCUCA | 0.00127 ± 0.0043
5 | GGAGACGUUACUUUACAACCUACUACCUCA | 0.00215 ± 0.0037
6 | GGAGACCUAACUAUACAAUCUACUACCUCA | 0.00373 ± 0.0046
7 | GGAGAGGAACUAUACAACCUACUACCUCA | 0.00746 ± 0.0049
8 | GGAGUGGAUACUAUACAUGGUACUACCUCA | 0.00303 ± 0.0028
9 | GGAGACCAUACUAAACAACCUACAACCUCA | 0.000693 ± 0.0062
10 | GGAGUGGAUACUAAACAACCUACUAGCUCA | 0.0013 ± 0.0025
11 | GGAGUGGAUACUAUACAACCUACAACCUCA | 0.00468 ± 0.0018
12 | GGAGACCUAACUAUUCAACCUACAACCUCA | 0.000946 ± 0.0084
13 | GGAGACCUAACUAUACACCCUACUACCUCA | 0.00682 ± 0.0033
14 | GGAGACCUUUCUAUACAACCAACUACCUCA | 0.00166 ± 0.0044
15 | GGAGACCUAACUAUACAACCUACUACCAGA | 0.00445 ± 0.0031
16 | GGAGACCUAUGUAUACAACCUACUAACCUCA | 0.000663 ± 0.011
17 | GGAGACCUUACUAUAGAACGUACUACCUCA | 0.000667 ± 0.0052
18 | GGAGACCUAUGAUAUCAUACCUACUACCUCA | 0.000373 ± 0.012
19 | GGAGUGGAUACUAUACUACGUACUACCUCA | 0.00381 ± 0.0021
20 | GGAGAGGAUACUAUACAACCUAUUACCUCA | 0.153 ± 0.056

Row | Sequence | pre-steady-state target cleavage rate
21 | GGAGACGAUACUAUACAAGCUACUACCUGA | 0.00333 ± 0.0015
22 | GGAGACCUAUCUAUACAACCUACUACAUCA | 0.00393 ± 0.0044
23 | GGAGACCUAACUAUACAACCUACUUACCUCA | 0.00322 ± 0.0039
24 | GGAGAGGAUUCUAUACAACCUAGUACCUCA | 0.00123 ± 0.0023
25 | GGAGACCUAUGUAUACAACCUACGUACCUCA | 0.000135 ± 0.024
26 | GGAGACGAUACUAUUCAACCUACUACCACA | 0.00322 ± 0.0017
27 | GGAGACCUAUGAUAUGUUGGUACUACCAUCA | 0.000689 ± 0.0059
28 | GGAGACCUAACUAUACAACCUACUACCUUCA | 0.0285 ± 0.011
29 | GGAGUGGAUACUUUACAACCUACUACGUCA | 0.00202 ± 0.0021
30 | GGAGACCUAUGUAUACAACCUACCACCUCA | 0.00171 ± 0.0059
31 | GGAGAGGAUACUAUACAACGUACUACCUGA | 0.00359 ± 0.0014
32 | GGAGACCUAUGAUAACAACCUACAACGUCA | 0.000205 ± 0.021
33 | GGAGACCAUACUAUAGAACCUACUACCACA | 0.00204 ± 0.0034
34 | GGAGACCAUACUAUACAAGCUAGUACCUCA | 0.0032 ± 0.0027
35 | GGAGACCUAUGAUAUGUUGCUACUAGGUCA | 0.000578 ± 0.0081
36 | GGAGACCUAUGUAUAACAACCUACUACCUCA | 0.00261 ± 0.0041
37 | GGAGACCUAUGAUAUGUUCCUACGACCUCA | 0.000103 ± 0.023
38 | GGAGACCUUACUAUACAACGUACUAGCUCA | 0.00143 ± 0.0031
39 | GGAGAGGAUACUAUACAACCUACUACCUCA [g2:g25:cont:t1A] | 0.0912 ± 0.033
40 | GGAGACGAAACUAAACAACCUACUACCUCA | 0.00324 ± 0.0032

A stretch taken from the entries so far:
Row | Sequence | pre-steady-state target cleavage rate
21 | GGAGACGAUACUAUACAAGCUACUACCUGA | 0.00333 ± 0.0015
22 | GGAGACCUAUCUAUACAACCUACUACAUCA | 0.00393 ± 0.0044
23 | GGAGACCUAACUAUACAACCUACUUACCUCA | 0.00322 ± 0.0039
